PubChem BioAssay AID1259331 | Drosophila RNAi Screening Center – 2017
The whole screen tested about 3,100 reagents; shown is a part drawn at random. Over the whole deposit, 126 (4.1%) got an active call. 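Calls are per reagent; zinc was so toxic that few knock-downs lowered ATP further, so most hits raise ATP.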 Raw values vary from plate to plate and are shown uncorrected. A plus sign joins genes that one reagent is predicted to hit. Not given: the amount of reagent.

Test: 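Genes whose knock-down changes cell survival under toxic zinc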 (primary screen)
Cells: Drosophila S2R+ cells
Knock-down reagent: long dsRNA against Drosophila genes
Duration: 5 days (4 days knock-down, then 1 day zinc)
Conditions: zinc chloride at 15 mM final level for 1 day
Detection: 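Total cellular ATP measured by luciferase luminescence as a viability proxy, turned into Z scores from three plate copies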
Scale: mean Z score: higher = more ATP than other wells, better survival under zinc; ATP luminescence: higher = more ATP, more viable cells
Hit rule: 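Hit when the absolute Z score is greater than 1.5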
Calls: active = hit, ATP up or down; inactive = not a hit

| gene | DRSC id | mean Z score | ATP luminescence, replicate 1 | ATP luminescence, replicate 2 | Outcome |
| --- | --- | --- | --- | --- | --- |
| GluRIIC (GeneID 33275) | DRSC00642 | -0.0381 | 56911 | 54373 | inactive |
| Piezo (GeneID 34112) | DRSC03092 | -0.193 | 53018 | 53996 | inactive |
| Piezo (GeneID 34112) | DRSC39751 | 0.313 | 70772 | 63130 | inactive |
| Nup133 (GeneID 42680) | DRSC16150 | 3.26 | 86788 | 78005 | active |
| Gr21a (GeneID 33251) | DRSC00366 | -0.36 | 41445 | 40444 | inactive |
| Gr21a (GeneID 33251) | DRSC28583 | 0.0133 | 63513 | 59647 | inactive |
| Nup50 (GeneID 35784) | DRSC06827 | -0.043 | 32222 | 31553 | inactive |
| Nup50 (GeneID 35784) | DRSC26470 | 0.895 | 79019 | 66372 | inactive |
| CG9760 (GeneID 39388) | DRSC11101 | 2.13 | 1.15e5 | 90305 | active |
| CG9760 (GeneID 39388) | DRSC28846 | -0.489 | 51424 | 56345 | inactive |
| CG9702 (GeneID 43634) | DRSC16540 | 0.527 | 70133 | 79549 | inactive |
| PK2-R2 (GeneID 41638) | DRSC16448 | -0.207 | 37639 | 57357 | inactive |
| PK2-R2 (GeneID 41638) | DRSC25536 | -0.169 | 57048 | 56311 | inactive |
| Nrk (GeneID 36445) | DRSC07480 | -0.177 | 78554 | 70045 | inactive |
| Nrk (GeneID 36445) | DRSC36725 | -0.0466 | 50610 | 41411 | inactive |
| Nrk (GeneID 36445) | DRSC36726 | -0.00644 | 49332 | 44548 | inactive |
| emp (GeneID 37999) | DRSC04019 | -0.441 | 36953 | 38989 | inactive |
| emp (GeneID 37999) | DRSC04683 | -0.493 | 25760 | 31656 | inactive |
| stan (GeneID 36125) | DRSC07697 | 0.384 | 82585 | 82414 | inactive |
| stan (GeneID 36125) | DRSC39642 | -0.355 | 53704 | 52967 | inactive |
| TRAM (GeneID 31042) | DRSC18178 | 0.228 | 48064 | 45817 | inactive |
| TRAM (GeneID 31042) | DRSC18651 | 1.02 | 83134 | 82900 | inactive |
| Remo (GeneID 2768909) | DRSC19710 | 0.528 | 73666 | 75970 | inactive |
| CG15406 (GeneID 33542) | DRSC00420 | 0.593 | 53824 | 51818 | inactive |
| CG15406 (GeneID 33542) | DRSC28108 | 0.2 | 64748 | 62804 | inactive |
| mthl10 (GeneID 38057) | DRSC08504 | -0.224 | 66257 | 67715 | inactive |
| mthl10 (GeneID 38057) | DRSC08505 | 0.147 | 41839 | 45440 | inactive |
| mthl10 (GeneID 38057) | DRSC39158 | 0.0263 | 47821 | 47943 | inactive |
| SPR (GeneID 31463) | DRSC17886 | -0.124 | 64885 | 63067 | inactive |
| SPR (GeneID 31463) | DRSC21557 | 0.17 | 49311 | 48514 | inactive |
| Pex12 (GeneID 33256) | DRSC00622 | 5.3 | 1.03e5 | 1.11e5 | active |
| Pex12 (GeneID 33256) | DRSC27149 | -0.147 | 65523 | 51029 | inactive |
| CG1572 (GeneID 32098) | DRSC19686 | 0.00952 | 47137 | 46554 | inactive |
| Coq4 + frc | DRSC10381 | 0.456 | 89893 | 65640 | inactive |
| sut1 (GeneID 35774) | DRSC07700 | -0.534 | 27165 | 28296 | inactive |
| CG9717 (GeneID 43636) | DRSC16543 | 0.534 | 75640 | 74163 | inactive |
| CG32579 (GeneID 318096) | DRSC19872 | 0.419 | 70356 | 75710 | inactive |
| CG32579 (GeneID 318096) | DRSC39617 | -0.00284 | 66240 | 60495 | inactive |
| Cralbp + PGRP-LD + Pmi | DRSC09743 | 3 | 1.40e5 | 1.05e5 | active |
| CG42818 (GeneID 10178877) | DRSC01963 | -0.574 | 43399 | 35976 | inactive |
| Osi2 (GeneID 40756) | DRSC12174 | -0.182 | 62638 | 63101 | inactive |
| Osi2 (GeneID 40756) | DRSC28374 | -0.0865 | 51818 | 68451 | inactive |
| Or2a (GeneID 31207) | DRSC18690 | -0.782 | 50488 | 55745 | inactive |
| Or2a (GeneID 31207) | DRSC39832 | -0.134 | 52116 | 56688 | inactive |

Continued; the last 2 above are carried over.
| gene | DRSC id | mean Z score | ATP luminescence, replicate 1 | ATP luminescence, replicate 2 | Outcome |
| --- | --- | --- | --- | --- | --- |
| Or2a (GeneID 31207) | DRSC18690 | -0.782 | 50488 | 55745 | inactive |
| Or2a (GeneID 31207) | DRSC39832 | -0.134 | 52116 | 56688 | inactive |
| SCAP (GeneID 35529) | DRSC04869 | 0.28 | 1.08e5 | 77754 | inactive |
| SCAP (GeneID 35529) | DRSC04907 | 0.192 | 88366 | 72637 | inactive |
| Desat2 (GeneID 41536) | DRSC25894 | 0.902 | 71196 | 66377 | inactive |
| Desat2 (GeneID 41536) | DRSC39498 | -0.351 | 44445 | 43022 | inactive |
| CG33296 (GeneID 2768941) | DRSC00998 | -0.15 | 40913 | 43061 | inactive |
| CG33296 (GeneID 2768941) | DRSC23839 | -0.402 | 63375 | 46880 | inactive |
| Mdr49 (GeneID 36428) | DRSC07466 | -0.534 | 28622 | 25382 | inactive |
| Mdr49 (GeneID 36428) | DRSC24065 | -0.185 | 51458 | 56842 | inactive |
| Ac76E (GeneID 40180) | DRSC09642 | -0.247 | 61695 | 62227 | inactive |
| Ac76E (GeneID 40180) | DRSC09662 | -0.314 | 29599 | 30279 | inactive |
| BicC (GeneID 34946) | DRSC02005 | 0.0816 | 57991 | 52898 | inactive |
| BicC (GeneID 34946) | DRSC29676 | -0.186 | 58574 | 58488 | inactive |
| CG30345 (GeneID 246553) | DRSC05144 | -0.00957 | 39902 | 47250 | inactive |
| CG30345 (GeneID 246553) | DRSC39521 | -0.234 | 43043 | 50018 | inactive |
| ccb (GeneID 33096) | DRSC20501 | -0.201 | 39268 | 40108 | inactive |
| CG9270 (GeneID 35366) | DRSC03182 | -0.32 | 28742 | 27045 | inactive |
| PGRP-SC1a + PGRP-SC1b | DRSC25294 | -0.056 | 51458 | 51510 | inactive |
| CG44098 (GeneID 40590) | DRSC12327 | -0.24 | 69704 | 56842 | inactive |
| CG44098 (GeneID 40590) | DRSC23643 | -0.351 | 53893 | 58111 | inactive |
| CG44098 (GeneID 40590) | DRSC24166 | 0.334 | 64833 | 68281 | inactive |
| arr (GeneID 44279) | DRSC07451 | 0.108 | 69733 | 71145 | inactive |
| arr (GeneID 44279) | DRSC27035 | 0.366 | 61799 | 60872 | inactive |
| meigo (GeneID 42510) | DRSC15877 | -0.702 | 31803 | 52653 | inactive |
| meigo (GeneID 42510) | DRSC25836 | 0.394 | 57442 | 64748 | inactive |
